Measured values as given in PubChem BioAssay AID504594 (Broad Institute, 2011).
Values joined by “and” are separate entries in the source; they are usually repeats but may differ in a detail not shown here. Equal entries are not always repeated. The whole screen tested about 2,000 compounds, of which fewer than 10 were called active.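 The calls were made as follows: active = growth inhibition of at least 75% in every replicate, which also brings the mean inhibition to 75% or more; inconclusive = mean inhibition 75% or more but some replicate under 75%; inactive = the rest.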 The list shows a part of the results.

test: growth inhibition of PfHsp90-dependent yeast, primary screen, antimalarial PfHsp90 inhibitor project, S. cerevisiae, BacTiter-Glo luminescence (AID 504594);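 also: 0% = DMSO neutral control wells and 100% = 20 µM radicicol control wells; higher value means stronger growth inhibition because the sign is flipped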; conditions: S. cerevisiae expressing PfHsp90, BacTiter-Glo growth, 48 h; at 9.4 µM; stronger effect = higher value

Growth inhibition, inactive:
COc1ccc(CCNC(=O)C(=O)Nc2ccc3c(c2)OCO3)cc1OC 1.39%, CCN(CC)CCNC(=O)c1ccc(NC(C)=O)cc1 -11% and 7.54%, CNC[C@H](O)c1cccc(O)c1 14%, COc1ccc2[nH]c(CN3CCN(CC(C)C)C(CCO)C3)c(C)c2c1 (centres undefined) -4.95%, Cn1c2ccccc2c2cc(/C=C(\NC(=O)c3ccccc3)C(=O)O)ccc21 -3.83%, c1coc(-c2nnc3n2C2(CCCC2)Cc2ccccc2-3)c1 6.62%, O=C(/C=C/c1ccco1)Nc1ccccc1C(=O)O 8.57%, O=C(CN1C(=O)c2ccccc2S1(=O)=O)Nc1ccccc1 13.4%, COc1cc2c(cc1OC)-c1nnc(C)n1C(C)(C)C2 5.21%, CCOCC(=O)Nc1ccccc1C(=O)N1CCOCC1 0.516%, O=C(O)/C=C/c1cccc(OCc2ccccc2)c1 -8.82%, O=C(c1ccc(F)cc1)[C@@H]1[C@@H](C(=O)c2ccccc2)[C@@]2(C(=O)Nc3ccccc32)[C@H]2c3ccccc3C=CN12 -1.47%, C#C[C@]1(O)CC[C@H]2[C@@H]3CCc4cc(OC)ccc4[C@H]3CC[C@@]21C -7.32%, CC1=C(C)C(=O)C(CCCCC#CCCCC#CCO)=C(C)C1=O 2.79%, N/C(=N/OS(=O)(=O)c1ccc([N+](=O)[O-])cc1)c1ccncc1 15.8%, COc1cc2c(cc1O)CC[C@@H]1[C@@H]2CC[C@]2(C)[C@@H](O)CC[C@@H]12 -1.15%, NS(=O)(=O)c1ccc(CCNC(=O)C2CCCN2C(=O)OCc2ccccc2)cc1 (centres undefined) -1.5%, C=CCNc1nc2c(c(=O)n(C)c(=O)n2C)n1CC(=C)C -13.3%, Clc1ccccc1CN1CCc2sccc2C1 -0.00592%, O=C(/C=C/c1ccccc1)NC(=O)c1ccccc1O 5.73%, CN(C)CCCN1c2ccccc2CCc2ccc(Cl)cc21 5.42%, COc1ccc2nc(C)cc(Nc3ccccc3O)c2c1 0.534%, CC1(C)OC2OC(C(=O)N/N=C/c3ccccc3F)C3OC(C)(C)OC3C2O1 (centres undefined) -0.107%, O=C(c1ccc([N+](=O)[O-])cc1)N1CCSC1c1ccccc1Cl (centres undefined) 1.35%, O=C(O)Cc1ccc(O)c(F)c1 14.1%, CC(C)CC(=O)NC(NC(=O)CC(C)C)c1cccc([N+](=O)[O-])c1 2.96%, O=C1CC(c2ccc(OCCCCCOc3ccc(C4CC(=O)NC4=O)cc3)cc2)C(=O)N1 (centres undefined) -11.1%, CS(=O)(=O)Oc1ccc2c(c1)O/C(=C\C=C\c1ccccc1)C2=O -3.57%, Nc1ncnc2c1ncn2C1OC(CO)C(O)C1O (centres undefined) 33.1%, CCCCC[C@H](O)/C=C/[C@@H]1[C@@H](C/C=C\CCCC(=O)O)[C@H]2CO[C@@H]1C2 -34.3%, COc1ccc(O)c(C(=O)/C=C/c2cc3ccccc3o2)c1 -18.5%, CCc1cc2c3c(c(=O)oc2cc1O)CCCC3 0.674%, O=c1[nH]cc(F)c(=O)[nH]1 21.4%, CCNC(=S)N1CCN(CCN2C(=O)c3cccc4cccc(c34)C2=O)CC1 2.01%, CC(=O)c1cccc(NC(=O)N[C@@H](CC(C)C)C(=O)O)c1 12.3%, CC1(C(=O)O)CCC(C(=O)NC2CCCCCC2)C1(C)C (centres undefined) -6.38%, CSCC[C@H](NC(=O)Nc1ccc(C)cc1C)C(=O)O -6.89%, O=C(CN1C(=O)/C(=C/c2cccc(Br)c2)SC1=S)Nc1cccnc1 -5.73%, CC(C)=CC/C=C1\CCC(C(=O)O)C(C(=O)O)C1 (centres undefined) 5.17%, NC(=O)c1ccccc1O 1.27%, N/C(=N\OS(=O)(=O)c1ccc2ccccc2c1)c1cccnc1 13.3%, Cc1ccc2[nH]c(=O)c(Cc3ccccc3)c(O)c2c1 0.831%, CCOC(=O)N1CCC(=C2c3ccc(Cl)cc3CCc3cccnc32)CC1 -26.4%, CC1CCN(C(=O)Oc2ccccc2)CC1 5.73%, COCCCC/C(=N\OCCN)c1ccc(C(F)(F)F)cc1 -5.7%, C[C@]12CCC(=O)C=C1CC[C@@H]1[C@@H]2C(=O)C[C@@]2(C)[C@H]1CC[C@]2(O)C(=O)CO -9.46%, O=C(O)CCSc1nc2ccccc2s1 -10.8%, CC(C)(C)C(=O)Nc1cccc(OC(F)(F)C(F)Cl)c1 (centres undefined) 11.9%, Cc1ccc(N(CC2=NCCN2)c2cccc(O)c2)cc1 -5.77% and -5.84% and 0.016%, O=Cc1ccc(OC(=O)c2cccnc2)cc1 -0.91%, COc1ccccc1C1(CC(=O)N2CCCCC2)CCOC(C(C)C)C1 (centres undefined) 14.4%, O=C(CN1CCN(Cc2ccccc2)CC1)N1CCCc2c1c(=O)oc1ccc(O)cc21 -7.45%, COc1ccc(N2CCN(C(=S)NCc3ccccc3)CC2)cc1 -6.04%, N#Cc1cc2c([nH]c1=O)CCCC2 8.49%, Cn1c(=O)[nH]c(=O)c2c1ncn2CCN1CCOCC1 -13.7%, O=C(NCCO)c1ccc(Cl)c(Cl)c1 -11.9%, COc1ccc(C=NCC2COc3ccccc3O2)cc1OC (centres undefined) 13.6%, CN(C)c1ccc(O)c2c1CC1CC3[C@@H](N(C)C)C(=O)C(C(N)=O)=C(O)[C@]3(O)C(=O)C1=C2O (some centres undefined) -9.48%, CC(=O)OCC(=O)[C@H]1CC[C@H]2[C@@H]3CC=C4C[C@@H](O)CC[C@]4(C)[C@H]3CC[C@]12C 29.2%, O=C(O)C1Cc2ccccc2CN1S(=O)(=O)c1ccccc1 (centres undefined) 3.53%, O=C(Nc1ccc(C(=O)NC2CCCCC2)cc1)c1cccnc1 -6.79%, c1ccc(CC2=NCCN2)cc1 -12.3%, CCOC(=O)C(=O)N1CCN(c2ccccc2OC)CC1 3.55%, CC(C)(Oc1ccc(CCNC(=O)c2ccc(Cl)cc2)cc1)C(=O)O 2.38%, OCCN1CCN(CCCN2c3ccccc3Sc3ccc(C(F)(F)F)cc32)CC1 5.63%, O=C(NC1CCCCC1)N1CCc2[nH]c3ccccc3c2C1 1.47%, CCc1cc(=O)oc2cc(OCC=C(C)C)ccc12 6.99%, Clc1ccc2c(c1)C(N1CCNCC1)=Nc1ccccc1O2 0.31%, O=C1c2ccccc2C(=O)C1c1ccccc1 -20.8%, C/C=C/Cn1c(SC)nc2c1c(=O)[nH]c(=O)n2C -1.22%, CC(C)C(=O)Nc1cccnc1 -6.33%, Clc1ccc(CCNc2ncnc3nc[nH]c23)cc1 -4.31%, CCOC(=O)c1cc2cc3ccccc3cc2[nH]1 -7.16%, COc1ccc(CNC(=O)C2CCN(C(=O)[C@@H](CC(C)C)NC(=O)OC(C)(C)C)CC2)cc1 7.36%, CC(C)(CO)CNC(=O)CC1C(=O)NCCN1CC(c1ccccc1)c1ccccc1 (centres undefined) 2.18%, CCOc1ccc(C(=O)C(C)=O)c(OCC)c1 10.5%, COc1ccc(CN(CCC(c2ccc(F)cc2)C2CCOC(C)(C)C2)C(=O)c2ccco2)cc1 (centres undefined) -5.42%, COc1ccc(CCCC(=O)O)c(C)c1 4.34%, COCC1CCCN(Cc2cn[nH]c2-c2cc3ccccc3o2)C1 (centres undefined) 4.05%, CCOc1cc(C=O)ccc1OCCSc1ccc(C)cc1 -2.97%, O=C1OC(c2ccc(O)cc2)(c2ccc(O)cc2)c2ccccc21 -0.13%, C[C@]12CC[C@@H]3c4ccc(O)cc4[C@@H](O)C[C@H]3[C@@H]1CC[C@@H]2O -2.59%, C=C(CC)C(=O)c1ccc(OCC(=O)O)c(Cl)c1Cl 6.24%, CCC(C)NCCOc1ccc(C(C)(C)c2ccccc2)cc1 (centres undefined) -1.83%, Nc1ccc(S(=O)(=O)NC(=O)c2ccccc2)cc1 -2.29%, C[N+](C)(C)CCOP(=O)(O)OP(=O)([O-])OC[C@H]1O[C@@H](n2ccc(N)nc2=O)[C@H](O)[C@@H]1O -19%, COC(=O)c1ccccc1NC(=O)NCc1ccccc1 -7.31%, O=C(NCCc1ccccc1)C1CCN(C2CCN(Cc3ccco3)CC2)CC1 5.2%, c1ccc2c(c1)CCCC2C1=NCCN1 (centres undefined) -9.12%, CCCCN1C[C@H](O)[C@@H](O)[C@H](O)[C@H]1CO 7.58%, CCCc1cc(C(N)=S)ccn1 1.14%, Cc1ccc2[nH]c3c(c2c1)CN(C)CC3 -12%, CC(=O)c1cc2c(cc1NC(=O)c1ccco1)OCCO2 2.24%, CC(C)CCOCC(=O)Nc1cccc(C(=O)O)c1 1.88%, CC(=O)OC(CC(=O)O)C[N+](C)(C)C (centres undefined) -9.33%, CC1(C)Cc2ccccc2C(C(Cc2ccccc2)C(N)=O)=N1 (centres undefined) -4.58%, COc1ccc2oc(C)c(C(N)=O)c2c1 -0.848%, CN1CCN(CC/C=C2/c3ccccc3Sc3ccc(S(=O)(=O)N(C)C)cc32)CC1 -10.9%, CN1CCC(=C2c3ccccc3C=Cc3ccccc32)CC1 -8.51%
